Assay results from paper PMC7443147.
No constants are given. Whether binding was seen depends on the method and setting. Binding seen in cells or lysates may run through a third protein. Some entries that bind do so weakly or less than the wild type. For some assays here: Where a sequence is shown, tags or fusion partners need not be part of it.

The chains behind the UniProt entries cited, without tags or fusion partners.
UniProt O96028: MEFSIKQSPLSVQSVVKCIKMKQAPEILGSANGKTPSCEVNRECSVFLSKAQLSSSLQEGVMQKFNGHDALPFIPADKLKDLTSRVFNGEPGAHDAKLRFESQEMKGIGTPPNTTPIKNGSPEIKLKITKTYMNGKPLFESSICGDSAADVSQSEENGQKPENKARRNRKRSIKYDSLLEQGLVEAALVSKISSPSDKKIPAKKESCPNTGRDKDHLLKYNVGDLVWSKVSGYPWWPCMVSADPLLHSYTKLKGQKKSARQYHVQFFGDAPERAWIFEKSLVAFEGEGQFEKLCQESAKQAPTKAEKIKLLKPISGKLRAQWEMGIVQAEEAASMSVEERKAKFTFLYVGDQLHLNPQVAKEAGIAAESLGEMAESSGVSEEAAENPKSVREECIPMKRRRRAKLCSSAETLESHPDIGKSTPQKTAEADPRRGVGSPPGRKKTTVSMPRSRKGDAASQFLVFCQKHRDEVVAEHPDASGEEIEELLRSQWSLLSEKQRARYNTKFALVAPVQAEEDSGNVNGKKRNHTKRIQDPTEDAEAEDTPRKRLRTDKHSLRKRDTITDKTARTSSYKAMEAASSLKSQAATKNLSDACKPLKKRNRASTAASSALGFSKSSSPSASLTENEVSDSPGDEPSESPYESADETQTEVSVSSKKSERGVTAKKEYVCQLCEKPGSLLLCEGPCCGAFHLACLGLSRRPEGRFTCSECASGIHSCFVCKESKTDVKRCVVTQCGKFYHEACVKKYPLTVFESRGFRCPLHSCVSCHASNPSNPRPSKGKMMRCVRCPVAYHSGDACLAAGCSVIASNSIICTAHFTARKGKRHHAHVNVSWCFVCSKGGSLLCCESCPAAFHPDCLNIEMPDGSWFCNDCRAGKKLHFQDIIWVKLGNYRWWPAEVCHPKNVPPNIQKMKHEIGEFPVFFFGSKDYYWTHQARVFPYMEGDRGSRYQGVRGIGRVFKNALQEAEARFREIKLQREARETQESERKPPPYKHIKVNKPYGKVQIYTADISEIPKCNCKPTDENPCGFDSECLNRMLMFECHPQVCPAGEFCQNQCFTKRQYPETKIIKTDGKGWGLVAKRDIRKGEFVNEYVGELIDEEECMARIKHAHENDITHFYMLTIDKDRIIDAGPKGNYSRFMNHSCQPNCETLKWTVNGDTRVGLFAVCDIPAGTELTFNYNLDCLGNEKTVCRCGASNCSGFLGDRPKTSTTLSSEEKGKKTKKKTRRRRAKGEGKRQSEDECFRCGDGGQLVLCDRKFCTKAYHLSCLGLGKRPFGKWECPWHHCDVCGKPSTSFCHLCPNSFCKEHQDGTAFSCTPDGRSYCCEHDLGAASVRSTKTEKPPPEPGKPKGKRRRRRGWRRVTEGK

What was measured:
[1] = molecular target: flag-BRCA1 (human) (UniProt P38398); test: co-IP; 293T cells transfected with flag-BRCA1; legend: immunoprecipitated with anti-flag antibody; methods: lysates after 48 h immunoprecipitated with an NSD2 antibody, protein A/G agarose, 2 h at 4 °C; immunoblot
[2] = molecular target: T1, GST-BRCA1 del#2 (residues 400-1100) (human) (UniProt P38398); test: pull-down; GST-BRCA1 or GST-BRCA1 deletion mutants incubated with extracts of K562 cells; eluted, SDS-PAGE, immunoblot; only the target purified
T1 sequence: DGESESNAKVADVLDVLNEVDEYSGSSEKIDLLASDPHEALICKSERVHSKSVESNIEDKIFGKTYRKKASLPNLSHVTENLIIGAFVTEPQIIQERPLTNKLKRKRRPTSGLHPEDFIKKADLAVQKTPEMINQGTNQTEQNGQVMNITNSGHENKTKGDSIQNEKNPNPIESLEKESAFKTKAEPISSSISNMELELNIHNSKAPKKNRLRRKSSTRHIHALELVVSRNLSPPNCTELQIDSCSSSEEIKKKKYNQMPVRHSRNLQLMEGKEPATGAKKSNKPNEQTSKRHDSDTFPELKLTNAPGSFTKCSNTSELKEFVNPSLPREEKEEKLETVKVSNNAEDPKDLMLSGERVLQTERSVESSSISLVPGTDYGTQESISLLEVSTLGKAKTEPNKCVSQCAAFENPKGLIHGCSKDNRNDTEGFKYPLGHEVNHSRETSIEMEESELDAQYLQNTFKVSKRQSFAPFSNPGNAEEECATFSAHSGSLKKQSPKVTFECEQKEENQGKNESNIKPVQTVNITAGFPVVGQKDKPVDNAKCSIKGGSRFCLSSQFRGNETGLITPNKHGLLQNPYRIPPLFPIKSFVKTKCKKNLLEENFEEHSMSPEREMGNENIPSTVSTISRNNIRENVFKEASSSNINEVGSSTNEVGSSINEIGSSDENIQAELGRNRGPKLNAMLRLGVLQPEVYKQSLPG

[3] = molecular target: GST-BRCA1 (human) (UniProt P38398); test: as above
[4] = molecular target: BRCA1, endogenous in K562 cells (human (endogenous in K562)) (UniProt P38398); test: co-IP; endogenous proteins; immunoprecipitated with anti-BRCA1 antibody from K562 cells treated with 30 µM hemin for 2 days and MG132 for 6 h
[5] = molecular target: BRCA1 WT stably overexpressed in K562 cells (human) (UniProt P38398); test: co-IP; K562 cells overexpressing BRCA1 WT or 4 mutant variants, treated with 30 µM hemin for 2 days and MG132 for 6 h; antibody of the immunoprecipitation not told

Row | Substance | binding [1] | binding [2] | binding [3] | binding [4] | binding [5]
1 | NSD2 in 293T cells (from UniProt O96028 1-1365) | binds | – | – | – | –
2 | NSD2, endogenous in K562 cells (from UniProt O96028 1-1365) | – | binds | binds | binds | binds
